{"source": "patent US20080306243A1", "about": "“Hla-Binding Peptide, and Dna Fragment and Recombinant Vector Coding for Said Hla-Binding Peptide” (NEC CORPORATION, priority 2005, published 2008)", "target": "HLA-A2402 molecule, which is a product of the HLA-A*2402 gene (human)", "assay": "cell-based peptide binding experiment, flow cytometry", "conditions": "remark: other sources report otherwise", "note": "Results are given in words; binding and its absence hold for the method and conditions named. Binding calls can cover weak binding; strength is not graded here.", "data": [{"binder": "WVLTAAHCI", "note": "[SEQ ID NO 12]", "values": [{"measurement": "binding", "value": "binds"}]}]}
